Measurements reported in PubChem BioAssay AID504774 (Drosophila RNAi Screening Center, 2011).
In all, the deposit lists about 23,000 reagents; this is a random part of those with a known target gene and a result. 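Values are quantile-normalised luminescence on an arbitrary scale; higher means more cells surviving MMS.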 Reagents against one gene are numbered here. Not all columns of the deposit are shown.

Assay: 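Knock-downs that shift viability of MMS-exposed cells relative to untreated ones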 (primary screen)
Cells: Drosophila Kc167 cells
Reagent: long dsRNA against Drosophila genes, about 0.25 µg dsRNA per well
Duration: about 6 days: 3 days knock-down, then 3 days with or without MMS
Treatment: methyl methanesulphonate 0.004% (w/v) for 3 days after knock-down
Measurement: 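Viability in wells given MMS, read as ATP luminescence, normalised by quantiles plate by plate and averaged across replicates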
Reading the numbers: mean viability with MMS: higher = more surviving cells after MMS

CG30430 scored mean viability with MMS 3.43e6.
With knock-down of spri #1 the results were mean viability with MMS 3.26e6.
Against spri #2, the values are mean viability with MMS 3.53e6.
For spri #3, the values are mean viability with MMS 3.64e6.
For spri #4 the deposit lists mean viability with MMS 3.74e6.
After knock-down of spri #5, the record shows mean viability with MMS 3.49e6.
spri #6 gave mean viability with MMS 3.46e6.
spri #7 showed mean viability with MMS 3.48e6.
With knock-down of Obp57e the results were mean viability with MMS 3.43e6.
Depletion of Klp68D resulted in: mean viability with MMS 3.47e6.
Knock-down of Rab5 came out at: mean viability with MMS 3.34e6.
Silencing of Apc gave: mean viability with MMS 3.51e6.
For OstDelta the deposit lists mean viability with MMS 3.53e6.
Flad2 gave mean viability with MMS 3.49e6.
After knock-down of CG14286, the screen gave mean viability with MMS 3.52e6.
Depletion of Ugt35E2 resulted in: mean viability with MMS 3.47e6.
Depletion of bip1 resulted in: mean viability with MMS 3.48e6.
Against Br140, the entry reads mean viability with MMS 3.14e6.

An excerpt from the list above:
Obp57e — mean viability with MMS = 3.43e6
Klp68D — mean viability with MMS = 3.47e6

More reagents:
Knock-down of CG32259 resulted in: mean viability with MMS 3.57e6.
Knock-down of CG7548 resulted in: mean viability with MMS 3.70e6.
CG31287 showed mean viability with MMS 3.51e6.
For Men-b, the entry reads mean viability with MMS 3.78e6.
For sicily the deposit lists mean viability with MMS 3.63e6.
For CG13445 the deposit lists mean viability with MMS 3.53e6.
NKAIN #1 showed mean viability with MMS 3.52e6.
With knock-down of NKAIN #2 the results were mean viability with MMS 3.60e6.
After knock-down of CG3376 the results were mean viability with MMS 3.68e6.
For Pp2B-14D #1, the values are mean viability with MMS 3.34e6.
Depletion of Pp2B-14D #2 came out at: mean viability with MMS 3.72e6.
Silencing of Hacd2 gave: mean viability with MMS 3.54e6.
CG12531 scored mean viability with MMS 3.42e6.
CG11983 gave mean viability with MMS 3.54e6.
For Vha100-3, the entry reads mean viability with MMS 3.53e6.
Against Or85a the deposit lists mean viability with MMS 3.56e6.
ppk7 showed mean viability with MMS 3.45e6.
